# PubChem BioAssay AID1259260, Sanger Institute – 2017
# Assay: 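Essential and drug-synergistic kinases in a colorectal cancer cell line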 (primary screen)
# Cells: human NCI-H716 colorectal cancer cells
# Reagent: siRNA pool against human genes
# Challenge: anchor drugs BYL719 (alpelisib) 1 µM, cetuximab 5 µg/ml or trametinib 10 nM, each at a dose chosen to harm viability only mildly; DMSO vehicle for the knock-down-alone arm
# Measured: 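Replicate-averaged viability relative to a non-targeting pool, a robust z-score for knock-down alone, and a synergy score per anchor drug versus each agent alone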
# Reading the numbers: viability robust z-score, siRNA alone: higher = more surviving cells; below -3 called essential; viability vs control, no drug: higher = more surviving cells
# Active means: 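Essential when the robust z-score for knock-down alone falls below -3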
# Meaning of the calls: active = essential (knock-down alone lowers viability); inactive = no essential effect
# Here is an unselected part of 794 deposited reagents. Of all reagents, 13 (1.6%) got an active call. 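Calls reflect only knock-down without drug; synergy above 0.15 was grouped apart and does not change the call.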 A number with no mark means an inactive call. Viability is capped at 1. Not all columns of the deposit are shown. Not given: the amount of reagent, the time to read-out.
gene knocked down,PubChem SID,"viability robust z-score, siRNA alone","viability vs control, no drug (fraction of control)"
GOLGA5 (GeneID 9950),SID134315128,0.0692,0.945
PIK3C2G (GeneID 5288),SID152155956,0.602,1
BCOR (GeneID 54880),SID135620845,0.602,1
PRPS1 (GeneID 5631),SID56479145,0.602,1
MINK1 (GeneID 50488),SID152155809,0.602,1
EFNB3 (GeneID 1949),SID134315611,0.139,0.952
PAK6 (GeneID 56924),SID56478794,0.602,1
STK32B (GeneID 55351),SID56478812,0.208,0.959
CKB (GeneID 1152),SID56479084,-2.24,0.705
NME4 (GeneID 4833),SID56479075,0.602,1
EPHA6 (GeneID 285220),SID152153448,0.232,0.961
CAMK2G (GeneID 818),SID56478805,0.602,1
AURKC (GeneID 6795),SID152150186,-0.543,0.881
UCK2 (GeneID 7371),SID56478981,0.602,1
MAPK12 (GeneID 6300),SID152156302,0.602,1
NAGK (GeneID 55577),SID135621243,-0.592,0.876
CSNK2A1 (GeneID 1457),SID135620685,0.602,1
PIM2 (GeneID 11040),SID56479034,0.602,1
FGFR3 (GeneID 2261),SID56478513,-0.665,0.868
PANK4 (GeneID 55229),SID56479123,-0.453,0.89
GNE (GeneID 10020),SID56479101,0.602,1
GK (GeneID 2710),SID56479100,0.602,1
ADK (GeneID 132),SID56478860,0.602,1
MYLK3 (GeneID 91807),SID152154935,-0.742,0.86
COMMD3 (GeneID 23412),SID152155344,0.356,0.974

Single entries from above:
Under “viability robust z-score, siRNA alone”, EPHA6 (GeneID 285220) [SID152153448] reads 0.232
For “viability robust z-score, siRNA alone”, MYLK3 (GeneID 91807) [SID152154935] reads -0.742
ADK (GeneID 132) [SID56478860], viability robust z-score, siRNA alone = 0.602
Under “viability vs control, no drug (fraction of control)”, EFNB3 (GeneID 1949) [SID134315611] reads 0.952
Entry of GK (GeneID 2710) [SID56479100] in “viability robust z-score, siRNA alone”: 0.602
Under “viability vs control, no drug (fraction of control)”, PRPS1 (GeneID 5631) [SID56479145] shows 1

The listing continues:
gene knocked down,PubChem SID,"viability robust z-score, siRNA alone","viability vs control, no drug (fraction of control)"
RIOK3 (GeneID 8780),SID152150051,0.602,1
TK2 (GeneID 7084),SID152153963,-2,0.73
ROR1 (GeneID 4919),SID135620631,-0.0608,0.931
TEK (GeneID 7010),SID152152932,0.287,0.967
ADPGK (GeneID 83440),SID134311981,-1.93,0.737
CHUK (GeneID 1147),SID152149746,0.602,1
ERBB2 (GeneID 2064),SID152153302,-1.66,0.765
STK17A (GeneID 9263),SID152148521,0.602,1
NPR2 (GeneID 4882),SID152151652,0.602,1
PDPK1 (GeneID 5170),SID135620604,0.602,1
PDXK (GeneID 8566),SID56478979,0.602,1
CDKL4 (GeneID 344387),SID135624323,0.602,1
TEC (GeneID 7006),SID152148252,-3.15 (active),0.61
LIMK2 (GeneID 3985),SID152148517,0.602,1
SIK3 (GeneID 23387),SID135620886,0.602,1
PLK2 (GeneID 10769),SID56478648,0.246,0.963
PIK3R2 (GeneID 5296),SID135620607,-0.782,0.856
ULK3 (GeneID 25989),SID152148646,0.602,1
PRKAR2A (GeneID 5576),SID152153424,0.602,1
ELF3 (GeneID 1999),SID135623079,-5.84 (active),0.33
NRBP2 (GeneID 340371),SID56479019,0.602,1
WNK1 (GeneID 65125),SID152148140,0.602,1
MAP3K1 (GeneID 4214),SID152150888,0.283,0.967
EFNA3 (GeneID 1944),SID135623696,0.602,1
GSK3A (GeneID 2931),SID56478467,-0.905,0.843
